For at least one compound, name, drawing or mass did not settle the structure.
Legend:
[1] = system: field EPSPs in hippocampal slices (area CA1); test: Protein synthesis-dependent LTP induced by high frequency stimulation (HFS), hippocampal slice electrophysiology; format: cell-based, mouse; details: wild-type vs Cyfip1 heterozygous mice; cycloheximide 60 μM, rapamycin 20 nM
[2] = system: field EPSPs in hippocampal slices (area CA1); group I mGluRs; test: DHPG-induced long-term depression (mGluR-LTD), hippocampal slice electrophysiology; format: cell-based, mouse; details: rapamycin 20 nM, DHPG 50 μM
Protocol: Hippocampal slices (350 μm) were prepared from 4-6 week old heterozygous mice and their wild-type littermate controls. Slices were perfused with Ringer's solution containing (in mM): NaCl, 125.0; KCl, 2.5; MgSO4, 1.3; NaH2PO4, 1.0; NaHCO3, 26.2; CaCl2, 2.5; glucose, 11.0. The Ringer's solution was bubbled with 95% O2/5% CO2, at 32° C., during extracellular recordings (electrode solution: 3 M NaCl). Slices were maintained for 1 hr prior to establishment of a baseline of field excitatory postsynaptic potentials (fEPSPs) recorded from stratum radiatum in area CA1, evoked by stimulation of the Schaffer collateral-commissural afferents (100 μs pulses every 30 s) with bipolar tungsten electrodes placed into area CA3 (Bozdagi et al., 2000). Test stimulus intensity was adjusted to obtain fEPSPs with amplitudes that were one-half of the maximal response. The EPSP initial slope (mV/ms) was determined from the average waveform of four consecutive responses. […]
All experiments were performed in the presence of 100 μM 2-amino-5-phosphopentanoic acid (AP5). Paired-pulse responses were measured with interstimulus interval (ISI) of 50 ms, and are expressed as the ratio of the average responses to the second stimulation pulse (FP2) to the first stimulation pulse (FP1). […]

Compound: CO[C@H]1C[C@@H]2CC[C@@H](C)[C@@](O)(O2)C(=O)C(=O)N2CCCC[C@H]2C(=O)O[C@H]([C@H](C)C[C@@H]2CC[C@@H](O)[C@H](OC)C2)CC(=O)[C@H](C)/C=C(\C)[C@@H](O)[C@@H](OC)C(=O)[C@H](C)C[C@H](C)/C=C/C=C/C=C/1C [rapamycin]
- inhibition of protein synthesis-dependent LTP, comparison between genotypes [1]: did not differ between wild-type and Cyfip1 heterozygous mice
- effect on mGluR-LTD induced by DHPG ([2]; Cyfip1 heterozygous mice): did not affect LTD
- effect on mGluR-LTD induced by DHPG ([2]; wild-type mice): abolished mGluR-LTD

Source: patent publication US20130225623A1, “Methods of Treating Psychiatric or Neurological Disorders with MGLUR Antagonists” (MOUNT SINAI SCHOOL OF MEDICINE, priority 2010, published 2013)
